Measurements from patent US9089133B2, “Insecticide for agricultural or horticultural use and method of use thereof” (MITSUI CHEMICALS, INC., priority 2003, dated 2015).
Some entries share one result that the patent states for a list of compounds.

Experiments:
[1] = system: Common Cutworm (Spodoptera litura); test: Insecticidal test for common cutworm (cabbage leaf dip); format: in vivo; conditions: 1000 ppm; cabbage leaf immersed 30 seconds; 2nd-instar larvae; 25° C.; three days after
[2] = system: Diamondback Moth (Plutella xylostella); test: Insecticidal test for diamondback moth (cabbage leaf dip); format: in vivo; conditions: 1000 ppm; cabbage leaf immersed 30 seconds; 2nd-instar larvae; 25° C.; three days after

Row | SMILES | mortality [1] [%] | mortality [2] [%]
1 | Cc1cc(C(F)(C(F)(F)F)C(F)(F)F)cc(C)c1NC(=O)c1cccc(NC(=O)OCc2ccc(Cl)nc2)c1 [Compound No. 163, N-(2,6-dimethyl-4-heptafluoroisopropyl)phenyl 3-[(6-chloropyridine-3-yl)methoxycarbonylamino]benzamide] | ≥ 70 | ≥ 70
2 | O=C(Nc1cccc(C(=O)Nc2ccc(C(F)(F)F)cc2C(F)(F)F)c1)OCC(Br)(Br)Br [compound 248] | ≥ 70 | ≥ 70
3 | O=C(Nc1cccc(C(=O)Nc2c(Cl)cc(S(F)(F)(F)(F)F)cc2Cl)c1)OCC(Cl)(Cl)Cl [compound 900] | ≥ 70 | ≥ 70
4 | Cc1cc(C(F)(C(F)(F)F)C(F)(F)F)cc(C)c1NC(=O)c1cc(NC(=O)OC(C)C)ccn1 [compound 2164] | ≥ 70 | ≥ 70
5 | Cc1cc(C(F)(C(F)(F)F)C(F)(F)F)cc(C)c1NC(=O)c1cccc(NC(=O)OCCF)c1 [compound 116] | ≥ 70 | ≥ 70
6 | Cc1cc(C(F)(C(F)(F)F)C(F)(F)F)cc(C)c1NC(=O)c1cccc(NC(=O)OC2CCCC2)c1 [compound 79] | ≥ 70 | ≥ 70
7 | O=C(Nc1cccc(C(=O)Nc2ccc(C(F)(F)F)cc2C(F)(F)F)c1)OCc1ccc(Cl)nc1 [compound 252] | ≥ 70 | ≥ 70
8 | Cc1cc(C(F)(C(F)(F)F)C(F)(F)F)cc(C)c1NC(=O)c1cccc(NC(=O)OCCBr)c1F [compound 1421] | ≥ 70 | ≥ 70
9 | Cc1cc(C(F)(C(F)(F)F)C(F)(F)F)cc(C)c1NC(=O)c1cccc(NC(=O)OC(CCl)CC(F)(F)F)c1 (centres unmarked) [Compound No. 120, N-(2,6-dimethyl-4-heptafluoroisopropylphenyl) 3-[(1-chloro-3-trifluoromethyl-2-propyl)oxycarbonylamino]benzamide] | ≥ 70 | ≥ 70
10 | O=C(Nc1cccc(C(=O)Nc2c(Br)cc(C(F)(F)C(F)(F)F)cc2Br)c1)OCCC(F)(F)F [compound 237] | ≥ 70 | ≥ 70
11 | Cc1cc(C(F)(C(F)(F)F)C(F)(F)F)cc(C)c1NC(=O)c1cccc(NC(=O)OCCCCl)c1 [compound 136] | ≥ 70 | ≥ 70
12 | O=C(Nc1cccc(C(=O)Nc2c(Cl)cc(Br)cc2C(F)(F)F)c1)OCC(Cl)(Cl)Cl [compound 913] | ≥ 70 | ≥ 70
13 | Cc1cc(C(F)(C(F)(F)F)C(F)(F)F)cc(C)c1NC(=S)c1cccc(NC(=O)OC(C)C)c1 [compound 1963] | ≥ 70 | ≥ 70
14 | Cc1cc(OC(C(F)(F)F)C(F)(F)F)ncc1NC(=O)c1cccc(NC(=O)OCC(Cl)(Cl)Cl)c1Cl [compound 1903] | ≥ 70 | ≥ 70
15 | Cc1cc(C(F)(C(F)(F)F)C(F)(F)F)cc(C)c1NC(=O)c1cccc(NC(=O)OCCC(F)(F)F)c1 [compound 123] | ≥ 70 | ≥ 70
16 | O=C(Nc1cccc(C(=O)Nc2ccc(C(F)(F)F)cc2C(F)(F)F)c1)OCC(Cl)(Cl)Cl [compound 247] | ≥ 70 | ≥ 70
17 | O=C(Nc1cccc(C(=O)Nc2c(Cl)cc(SC(F)(C(F)(F)F)C(F)(F)F)cc2Cl)c1)OCC(Cl)(Cl)Cl [compound 898] | ≥ 70 | ≥ 70
18 | Cc1cc(C(F)(C(F)(F)F)C(F)(F)F)cc(C)c1N(C)C(=O)c1cccc(NC(=O)OC(C)C)c1 [compound 1950] | ≥ 70 | ≥ 70
19 | Cc1cc(C(F)(C(F)(F)F)C(F)(F)F)cc(C)c1NC(=O)c1cc(NC(=O)OC(C)C)ccc1I [Compound No. 1945, N-(2,6-dimethyl-4-heptafluoroisopropyl)phenyl 2-iodo-5-(isopropyloxycarbonylamino)benzamide] | ≥ 70 | ≥ 70
